Measured values published in PMC12646314, “Structure and encapsulation of carbonic anhydrase within the α-carboxysome” (Proceedings of the National Academy of Sciences of the …, 2025).
Results are given in words; binding and its absence hold for the method and conditions named. For some of these results: Binding can be weak; no strength is given.

Key:
[1] = molecular target: T1, CsoS1A (the major shell hexamer) (Halothiobacillus neapolitanus) (UniProt P45689); experiment: cryo-EM structure; single-particle cryo-EM of purified T = 4 minishell/CsoSCA^ΔC (2.36 Å symmetry relaxed) and minishell/CsoSCA-C (3.05 Å); internal density seen at low contour, disordered
T1 sequence: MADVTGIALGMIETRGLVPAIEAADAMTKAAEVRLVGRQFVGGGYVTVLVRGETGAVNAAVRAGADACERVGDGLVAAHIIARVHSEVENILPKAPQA

[2] = molecular target: T2, CsoS4A (shell pentamer) (Halothiobacillus neapolitanus) (UniProt O85043); experiment: as above
T2 sequence: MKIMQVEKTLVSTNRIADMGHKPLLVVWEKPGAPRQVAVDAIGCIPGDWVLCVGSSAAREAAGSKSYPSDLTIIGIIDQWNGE

Row | Substance | binding [1] | binding [2]
1 | CsoSCA-C with a C-terminal His6 tag (C-terminal domain of CsoSCA) (Halothiobacillus neapolitanus) (domain or fragment) | binds | no binding
2 | CsoSCA^ΔC with a C-terminal His6 tag (CTD deletion of CsoSCA) (Halothiobacillus neapolitanus) (domain or fragment) | binds | no binding
